Assay: Fluorescence and fluorescence quenching studies (SLFIA conditions)
Details: for F/Fo (observed fluorescence to fluorescence in the absence of fenclofenac): 1.3 μM fluorescer
Experimental: Fluorescence measurements were conducted in 50 mM Bicine buffer (N,N-bis-(2-hydroxyethyl)glycine, Calbiochem-Behring, LaJolla, Calif., USA), pH 8.3, using an Aminco Bowman Fluorometer (American Instruments, Silver Springs, Md., USA), excitation set at 400 nm and emission at 450 nm, which are the fluorescence conditions for the β-galactosyl-umbelliferone enzyme substrate-labeled fluorescent immunoassay (SLFIA) described in U.S. Pat. No. 4,279,992.
Quenching studies were performed by measuring the fluorescence of a 1.3 μM solution of 2-[7-hydroxy-3-carboxamidocoumarin]ethanol (U.S. Pat. No. 4,273,715) in the presence of various levels of fenclofenac. The ratios of observed fluorescence (F) to fluorescence in the absence of fenclofenac (Fo) versus fenclofenac concentration were calculated and are presented in Table 6.

## O=C(O)Cc1ccccc1Oc1ccc(Cl)cc1Cl [Fenclofenac, 2-(2,4-dichlorophenoxy)phenylacetic acid]
0.2 mM fenclofenac
  F/Fo (observed fluorescence to fluorescence in the absence of fenclofenac): 1.00
1.0 mM fenclofenac
  F/Fo (observed fluorescence to fluorescence in the absence of fenclofenac): 1.01
2.0 mM fenclofenac
  F/Fo (observed fluorescence to fluorescence in the absence of fenclofenac): 1.00
5.0 mM fenclofenac
  F/Fo (observed fluorescence to fluorescence in the absence of fenclofenac): 1.00
0.2 to 10 mM fenclofenac
  quenching of the umbelliferone fluorescer used in the SLFIA technique: essentially no quenching
10. mM fenclofenac
  F/Fo (observed fluorescence to fluorescence in the absence of fenclofenac): 1.02
